According to article PMC9484696:
These are yes or no findings as the source states them, for the method shown. Some entries that bind do so weakly or less than the wild type.

By UniProt entry, the sequences of proteins in these tests, tags left out. Residues count along the entry.
UniProt Q0IF93, residues 22-332: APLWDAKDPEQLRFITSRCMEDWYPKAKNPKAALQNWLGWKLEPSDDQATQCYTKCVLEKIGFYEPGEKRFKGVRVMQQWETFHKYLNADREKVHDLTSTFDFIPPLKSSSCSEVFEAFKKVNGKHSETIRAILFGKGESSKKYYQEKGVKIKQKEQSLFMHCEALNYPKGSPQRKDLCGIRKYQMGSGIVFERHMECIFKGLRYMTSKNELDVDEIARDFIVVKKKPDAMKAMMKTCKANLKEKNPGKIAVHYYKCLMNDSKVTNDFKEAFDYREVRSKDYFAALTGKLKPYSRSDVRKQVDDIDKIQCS
UniProt Q9NNX6, residues 58-380: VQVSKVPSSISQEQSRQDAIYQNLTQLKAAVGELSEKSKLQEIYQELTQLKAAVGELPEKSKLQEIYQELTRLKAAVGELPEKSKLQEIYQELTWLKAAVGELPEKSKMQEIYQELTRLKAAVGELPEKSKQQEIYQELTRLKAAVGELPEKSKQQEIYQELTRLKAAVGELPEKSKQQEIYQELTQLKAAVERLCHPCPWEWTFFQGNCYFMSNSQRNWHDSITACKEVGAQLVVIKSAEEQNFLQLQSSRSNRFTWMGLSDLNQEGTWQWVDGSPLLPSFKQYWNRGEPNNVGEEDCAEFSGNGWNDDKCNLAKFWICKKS

Legend:
[1] = biological target: T1, recombinant Ae. aegypti venom allergen 1 (AaVA-1) (Aedes aegypti); test: ELISA; 5 μg salivary gland protein coated overnight at 4°C on high binding 96-well plates, blocked with 1% BSA in PBST; 1 μg CD4 or DC-SIGN ectodomain added at 37°C for 1 h; detected with rabbit anti-CD4 or HRP anti-DC-SIGN monoclonal antibody, TMB, read at 450 nm; both purified
T1 sequence: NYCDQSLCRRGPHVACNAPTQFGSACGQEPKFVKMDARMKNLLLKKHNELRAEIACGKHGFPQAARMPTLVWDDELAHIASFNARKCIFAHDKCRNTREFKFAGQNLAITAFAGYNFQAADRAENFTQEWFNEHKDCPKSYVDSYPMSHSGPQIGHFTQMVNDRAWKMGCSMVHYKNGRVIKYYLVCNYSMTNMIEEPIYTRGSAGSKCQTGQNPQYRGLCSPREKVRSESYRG

[2] = biological target: recombinant D7 (AAEL006417) (Aedes aegypti) (UniProt Q0IF93); test: as above

## ectodomain of human DC-SIGN (58-380 amino acid residues), recombinant (from UniProt Q9NNX6 58-380) (domain or fragment)
[1]
  binding: binds weakly
[2]
  binding: no binding (tested: 1 μg DC-SIGN)
